Assay results reported in paper doi:10.1101/2021.12.19.473358.
These are yes or no findings as the source states them, for the method shown. Binding can be weak; no strength is given.

Tests used:
Assay in all cases: two-hybrid
[1] = molecular target: T1, Drosophila Cup (Drosophila melanogaster) (UniProt Q9VMA3)
T1 sequence: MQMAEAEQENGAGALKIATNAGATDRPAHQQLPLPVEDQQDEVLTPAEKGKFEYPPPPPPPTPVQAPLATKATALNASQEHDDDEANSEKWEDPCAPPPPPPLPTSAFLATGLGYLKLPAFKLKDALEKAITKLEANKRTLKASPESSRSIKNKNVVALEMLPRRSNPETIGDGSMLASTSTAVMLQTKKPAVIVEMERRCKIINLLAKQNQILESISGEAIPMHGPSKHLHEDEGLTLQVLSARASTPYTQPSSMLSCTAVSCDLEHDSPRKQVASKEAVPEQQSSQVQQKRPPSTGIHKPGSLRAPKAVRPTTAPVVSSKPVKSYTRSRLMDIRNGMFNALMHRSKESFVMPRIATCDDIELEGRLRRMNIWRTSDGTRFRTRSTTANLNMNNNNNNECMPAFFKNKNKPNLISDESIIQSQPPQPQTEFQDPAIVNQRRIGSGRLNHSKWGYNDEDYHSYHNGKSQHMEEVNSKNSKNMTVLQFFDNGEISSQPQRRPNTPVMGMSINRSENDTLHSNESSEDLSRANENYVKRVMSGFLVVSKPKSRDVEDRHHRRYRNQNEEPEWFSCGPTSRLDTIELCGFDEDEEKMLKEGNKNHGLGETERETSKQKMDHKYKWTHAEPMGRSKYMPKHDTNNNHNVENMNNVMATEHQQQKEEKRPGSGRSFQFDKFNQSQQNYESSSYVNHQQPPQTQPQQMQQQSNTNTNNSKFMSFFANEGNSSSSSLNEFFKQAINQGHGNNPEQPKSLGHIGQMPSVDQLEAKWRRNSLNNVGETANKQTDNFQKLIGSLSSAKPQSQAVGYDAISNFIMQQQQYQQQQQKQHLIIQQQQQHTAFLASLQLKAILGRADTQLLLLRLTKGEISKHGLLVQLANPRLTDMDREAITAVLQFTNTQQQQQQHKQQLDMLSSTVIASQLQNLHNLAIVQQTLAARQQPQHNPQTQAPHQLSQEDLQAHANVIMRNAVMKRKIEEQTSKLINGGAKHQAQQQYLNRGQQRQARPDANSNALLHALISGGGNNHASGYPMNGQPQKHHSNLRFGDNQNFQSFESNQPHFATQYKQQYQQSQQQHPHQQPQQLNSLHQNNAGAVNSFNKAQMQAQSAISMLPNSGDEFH

[2] = molecular target: T2, Drosophila 4E-BP (Drosophila melanogaster) (UniProt Q9XZ56)
T2 sequence: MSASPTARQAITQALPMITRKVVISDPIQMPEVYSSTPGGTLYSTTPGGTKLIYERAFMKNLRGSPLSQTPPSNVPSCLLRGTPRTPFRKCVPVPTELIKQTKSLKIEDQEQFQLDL

[3] = molecular target: Drosophila eIF4G-2 (313-1164) (Drosophila melanogaster) (UniProt Q9VCH1)
[4] = molecular target: T3, Drosophila eIF4E transporter (4E-T) (Drosophila melanogaster) (UniProt Q8IH18)
T3 sequence: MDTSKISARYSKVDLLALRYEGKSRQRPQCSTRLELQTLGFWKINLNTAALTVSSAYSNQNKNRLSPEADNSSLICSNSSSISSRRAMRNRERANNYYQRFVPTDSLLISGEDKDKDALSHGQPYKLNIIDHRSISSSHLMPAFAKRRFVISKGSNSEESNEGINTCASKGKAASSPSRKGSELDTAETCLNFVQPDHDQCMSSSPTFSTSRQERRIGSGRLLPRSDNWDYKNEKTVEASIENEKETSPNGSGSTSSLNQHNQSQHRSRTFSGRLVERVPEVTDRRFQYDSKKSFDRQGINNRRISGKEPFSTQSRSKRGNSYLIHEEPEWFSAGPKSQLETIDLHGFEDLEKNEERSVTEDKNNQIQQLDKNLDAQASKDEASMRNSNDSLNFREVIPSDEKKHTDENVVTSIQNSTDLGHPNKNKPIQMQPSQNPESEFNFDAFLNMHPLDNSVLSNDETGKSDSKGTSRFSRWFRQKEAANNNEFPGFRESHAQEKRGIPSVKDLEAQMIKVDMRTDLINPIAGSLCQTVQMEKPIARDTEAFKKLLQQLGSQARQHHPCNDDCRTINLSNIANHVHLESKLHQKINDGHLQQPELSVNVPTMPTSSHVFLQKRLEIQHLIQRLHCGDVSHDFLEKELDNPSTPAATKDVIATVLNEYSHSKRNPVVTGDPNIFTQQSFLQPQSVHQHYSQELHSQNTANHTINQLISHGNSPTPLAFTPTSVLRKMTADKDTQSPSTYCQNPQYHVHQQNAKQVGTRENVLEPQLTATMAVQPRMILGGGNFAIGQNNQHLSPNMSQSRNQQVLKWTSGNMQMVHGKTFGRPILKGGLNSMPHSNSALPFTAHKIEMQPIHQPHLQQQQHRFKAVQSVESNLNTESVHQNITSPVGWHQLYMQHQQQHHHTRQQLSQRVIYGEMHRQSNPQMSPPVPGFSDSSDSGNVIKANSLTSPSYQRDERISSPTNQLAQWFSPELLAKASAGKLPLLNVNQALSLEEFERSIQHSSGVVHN

Measured: binding

Drosophila eIF4E-5 (from UniProt Q9VSB6)
binds: all assays above
